Source: US10154673B2, “Method of removing lactose from a solution” (Stellenbosch University, priority 2014, dated 2018)

Test: Adsorption of β-gal onto Dynabeads (HIPD), BCA protein determination
Type: binding
Details: Langmuir-Freundlich
Description: To determine the amount (μg) of β-gal that was bound to Dynabeads® (HIPD), a BCA protein assay was performed according to the manufacturer's protocol. A standard curve with BSA was established in a range from 0 to 2 mg/ml. The analysis was performed at 540 nm.
A dilution series of purified β-gal wildtype and E537D mutant was prepared in a concentration range from 0 to 0.4 mg/ml. The dilution series was incubated with the beads (25 μl) for 10 min at 25° C. according to the manufacturer's protocol to ensure optimal adsorption of β-gal onto the beads. The beads were subsequently separated from the solution with a magnet and the supernatant was removed and analysed as described immediately above. The beads were then washed three times in dialysis buffer and the supernatant of the wash steps were also analysed for protein content.
The experimental procedure described above was repeated at 4 and 37° C.
Purified β-gal (wildtype and E537D mutant), was incubated with the beads (25 μl) at room temperature and optimal concentration to ensure maximum binding. The supernatant was removed from the solution at regular time intervals for 10 min. The collected fractions were assayed for protein content as described above. Analysis of β-gal bound to the beads took place with SDS-PAGE and Western blot analyses as outlined above.

Row | Substance | qm (μg β-gal/mg beads) (4° C.) | qm (μg β-gal/mg beads) (25° C., listed as Wildtype) | qm (μg β-gal/mg beads) (25° C., listed as wildtype) | qm (μg β-gal/mg beads) (37° C.) | qm (μg β-gal/mg beads) (25° C.)
1 | wildtype β-gal: N-terminal His-tagged wildtype E. coli β-galactosidase (lacZ product), expressed and IMAC purified [reference compound] | 12.12 ± 1.040 | 45.88 ± 1.422 | 45.88±1.422 | 23.79 ± 2.023 | 
2 | E537D mutant: N-terminal His-tagged E. coli β-galactosidase with Glu537 replaced by Asp | 9.575 ± 0.877 |  |  | 19.26 ± 1.197 | 47.81±1.273
